{"sequences": {"note": "Amino acid sequences for entries named in this document (tags omitted). Residues count along the entry.", "UniProt P20138, residues 18-364": "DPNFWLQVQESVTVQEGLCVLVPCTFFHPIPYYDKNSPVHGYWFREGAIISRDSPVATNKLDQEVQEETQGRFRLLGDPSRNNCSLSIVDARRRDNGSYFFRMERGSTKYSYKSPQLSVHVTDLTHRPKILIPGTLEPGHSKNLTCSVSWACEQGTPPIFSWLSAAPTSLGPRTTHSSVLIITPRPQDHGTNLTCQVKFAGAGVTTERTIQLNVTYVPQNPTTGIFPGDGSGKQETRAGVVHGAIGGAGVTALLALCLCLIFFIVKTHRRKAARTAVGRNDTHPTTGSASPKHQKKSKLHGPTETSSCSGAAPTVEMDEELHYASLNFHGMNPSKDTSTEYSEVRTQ"}, "source": "patent US20200095327A1", "about": "(DRAGONFLY THERAPEUTICS, published 2020)", "biological_target": "T1, CD33 expressed on MV4-11 human AML cells (human, UniProt P20138 18-364)", "T1 construct": "whole, on cells; also called cell-expressed CD33", "experiment": "flow cytometry on MV4-11 cells, MFI fold over background", "note": "Results are given in words; binding and its absence hold for the method and conditions named. Some entries that bind do so weakly or less than the wild type."}
{"binder": "parental anti-CD33 monoclonal antibody (antibody, V domains shown) VH: QVQLVQSGAEVKKPGASVKVSCKASGYTFTDYVVHWVRQAPGQGLEWMGYINPYNDGTKYNEKFKGRVTMTRDTSISTAYMELSRLRSDDTAVYYCARDYRYEVYGMDYWGQGTLVTVSS VL: DIVLTQSPASLAVSPGQRATITCTASSSVNYIHWYQQKPGQPPKLLIYDTSKVASGVPARFSGSGSGTDFTLTINPVEANDTANYYCQQWRSYPLTFGQGTKLEIK", "values": [{"measurement": "binding", "result": "binds"}]}
